In US8975245B2, “Anaesthetic formulation” (Drawbridge Pharmaceuticals Pty Ltd, priority 2010, dated 2015):

Key:
[1] = Ceiling toxicity: calculated plasma levels and clearance of alphaxalone
human volunteers = conditions: expected
[2] = iv, (7) sulfobutyl ether β-cyclodextrin/alphaxalone formulation

## CC(=O)[C@H]1CC[C@H]2[C@@H]3CC[C@H]4C[C@H](O)CC[C@]4(C)[C@H]3C(=O)C[C@]12C [alphaxalone, 3-α-hydroxy-5-α-,pregnan-11,20-dione]
[1]; 4.3 mg/kg, plasma volume 31 ml/kg, instantaneous mixing
  plasma level of drug needed to cause sleep (dose administered as Althesin/plasma volume): 0.14 mg/mL
[1]; 30% of theoretical maximum
  plasma concentration expected when the blood has circulated to mix the drug (30%): 0.046 mg/mL
[1]; repeated 5 mg/kg PhaxanCD doses
  concentration in plasma at equilibrium: approximately 0.04 mg/ml
[1]; repeated 5 mg/kg PhaxanCD doses, 5 mg/kg/4.2 min
  plasma clearance rate at equilibrium: 30 mls/kg/min
[1]; single iv bolus, 65% of total
  level of free unbound alphaxalone in the plasma associated with anaesthesia induction: 0.03 mg/mL
Human volunteers; compared with Althesin administration
  pharmacokinetics after intravenous administration: the same as for the alphaxalone figures in the literature
Human volunteers; [2]
  BIS value achievable in one arm/brain circulation time: < 50
  pain on injection: no pain on injection
Human volunteers; iv
  speed and quality of recovery after the induction dose, versus propofol: faster
